Source: patent US20150203573A1 (MEDICAL AND BIOLOGICAL LABORATORIES, published 2015)
These are yes or no findings as the source states them, for the method shown. Some results given as binding are weak or reduced against the parent protein; the word gives no strength.

T1: recombinant mouse MK (mMK), aa1-aa119 of mouse MK (mouse) (UniProt P12025)
T1 sequence (looked up): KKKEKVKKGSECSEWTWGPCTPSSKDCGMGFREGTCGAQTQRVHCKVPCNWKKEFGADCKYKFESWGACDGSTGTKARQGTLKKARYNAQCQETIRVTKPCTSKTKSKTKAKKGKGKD


Assays:
[1] = molecular target: T1, recombinant mouse MK (mMK), aa1-aa119 of mouse MK (mouse); assay: ELISA, IgG serially diluted from 5 ug/mL; against hFB54 or mouse FB54
[2] = molecular target: T1, recombinant mouse MK (mMK), aa1-aa119 of mouse MK (mouse); assay: ELISA, purified Fab serially diluted from 5 ug/mL, antigen coated at 2 ug/mL; against mFB54 Fab
[3] = molecular target: T1, recombinant mouse MK (mMK), aa1-aa119 of mouse MK (mouse); assay: ELISA, Fab in E. coli culture supernatant on mMK coated at 5 ug/mL, anti-cp3 detection

Row | binding [1] | binding [2] | binding [3] | Binder
1 | binds | – | – | hFB54-matu014 affinity-improved antibody (IgG) (antibody, V domains shown) VH: EVQLVESGGGLVKPGGYLRLSCAASGFTFSSYAMSWVRQTPGKGLDWVATISSGGSYTYYPDSVKGRFTISRDNVKNSLYLQMNSLTDDDTAVYFCARHNYRYDEYYYAMDYWGQGTLVTVSS VL: ETTVTQSPSSLSASVGDRVTIRCITNIDIDDEMNWYQQKPGKGPKLLISEGNTLRPGVPSRFSSSGYGTDFTLTISSLQPEDFATYYCLQSDNLPYTFGRGTKLEIK
2 | binds | – | – | hFB54-matu039 affinity-improved antibody (IgG) (antibody, V domains shown) VH: EVRLVESGGGLVKPGGYLRLSCAASGFTFSSYAMSWVRQAPGKGLDWVATISSGGSYTYYPDSVKERFTISRDNAKNSLYLQMNSLTDDDTAVYFCARHNYRYDEYYYGMDYWGQGTLVTVSS VL: ETTVTQSPSSLSASVGDRVTIRCKTSIDIDDEMNWYQQKPGKGPKLLISEGNTLRPGVPSRFSSSGYGTDFTLTISSLQPEDFATYYCLQSDNLPYTFGQGTKLGIK
3 | binds | – | – | hFB54-matu072 affinity-improved antibody (IgG) (antibody, V domains shown) VH: EVQLVESGGGLVKPGGYLRLSCAASGFTFSSYAMSWVRQAPGKGLDWVATISSGGSYTYYPDNVKGRFTISRDNAKNSLYLQMNSLTDDDTAVYFCARHNYRYDEYYHAMDYWGQGTLVTVSS VL: ETTVTQSPSSLFASVGDKVTIRCITSIDIDDEMNWYQQKPGKGPKLLISEGNTLRPGVPSRFSSSGYGTDFTLTISSLQPEDFATYYCLQSDNLPYTFGQGTKLEIK
4 | binds | – | – | hFB54-matu024 affinity-improved antibody (IgG) (antibody, V domains shown) VH: EVQLVESGGGLVKPGGYLRLSCAASGFTFSSYAMSWVRQAPGKGLDWVATISSGGSYTYYPDSVKGRFTISRDNAKNSLYLQMNSLTDDDTAVYFCARHNYRYGEYYYAMDYWGQGTLVTVSS VL: ETTVTQSPSSLSASVGDRVTIRCITSIDIDDEMNWYQQKSGKGPKLLISEGNTLRPGVPSRFSSSGYGTDFTLTISSLQPEDFATYYCLQSDNLPYTFGQGTKLEIK
5 | binds | – | – | hFB54-matu062 affinity-improved antibody (IgG) (antibody, V domains shown) VH: EVQLVESGGGLVKPGGYLRLSCAASGFTFSSYAMSWVRQAPGKGLDWVATISSGGSYTYYPDSVKGRFTISRDNAENTLYLQMNSLTNDDTAVYFCARHNYRYDEYYYAMDYWGQGTLVTVSS VL: ETTVTQSPSSLSAFVGGRVAIRCITNIDIDDEMNWYQQKPGKGPKLLISEGNTLRPGVPSRFSSSGYGTDFTLTISSLQPEDFATYYCMQSDNLPYTFGQGTKLEIK
6 | binds | – | – | hFB54-matu054 affinity-improved antibody (IgG) (antibody, V domains shown) VH: EVQLVESGGGLVKPGGYLRLSCAASGFTFSSYAMSWVRQAPGKGLDWVATISSGGSYTYYPDSVKGRFTISRDNTKNTLYLQMNSLTDDDTAVYFCARHNYRYDEYYYAMDYWGQGTLVTVSS VL: ETTVTQSPSSLSASVGDRVTIRCITSIDIEDEMNWYQQKPGKGPKLLISEGNTLRPGVPSRFSSSGYGTDFTLTISSLQPEDFATYYCLQSDNLPYTFGQGTKLEIK
7 | – | binds | binds | mFB54-matu002 Fab antibody (Fab, V domains shown) VH: EVMLVESGGGLVKPGGSLKLSCAASGFTFSSYAMSWVRQTPEKRLEWVATISSGGSYTYYPDSVKGRFTISRDNAKNTLYLQMSSLRSEDTAMYFCARHNYRYDEYYYAMDYWGQGTSVTVSS VL: ETTVTQSPTSLSMAIGEKVTIRCTTSIDIDDEMNWYQQMPGEPPKLLISEGNTLRPGVPSRFSSSGYGTDFVFTIENMLSEDVADYYCLQSDNLPYTFGGGTKLEIK
8 | binds | – | – | mFB54-matu089 affinity-improved antibody (IgG) (antibody, V domains shown) VH: EVMLVESGGGLVEPGGSLKLSCTVSGFTFSSYAMSWVRQTPEKRLEWVATISSGGSYTYYPDSVKGRFTISRDNAKNTLYLQMSSLRSEDTAMYFCARHNYRYDEYYYAMDYWGHGTSVTVSS VL: ETTVTQSPTSLSMAIGEKVTIRCITSIDIDDEMNWYQQKPGEPPKLLISEGNTLRPGVPSRFSSSGYGTDFVFTIENVLSEDVADYYCLQSDNLPYTFGGGTKLEIK
9 | binds | – | – | mFB54-matu002 affinity-improved antibody (IgG) (antibody, V domains shown) VH: EVMLVESGGGLVKPGGSLKLSCAASGFTFSSYAMSWVRQTPEKRLEWVATISSGGSYTYYPDSVKGRFTISRDNAKNTLYLQMSSLRSEDTAMYFCARHNYRYDEYYYAMDYWGQGTSVTVSS VL: ETTVTQSPTSLSMAIGEKVTIRCTTSIDIDDEMNWYQQMPGEPPKLLISEGNTLRPGVPSRFSSSGYGTDFVFTIENMLSEDVADYYCLQSDNLPYTFGGGTKLEIK
10 | – | binds | binds | mFB54-matu089 Fab antibody (Fab, V domains shown) VH: EVMLVESGGGLVEPGGSLKLSCTVSGFTFSSYAMSWVRQTPEKRLEWVATISSGGSYTYYPDSVKGRFTISRDNAKNTLYLQMSSLRSEDTAMYFCARHNYRYDEYYYAMDYWGHGTSVTVSS VL: ETTVTQSPTSLSMAIGEKVTIRCITSIDIDDEMNWYQQKPGEPPKLLISEGNTLRPGVPSRFSSSGYGTDFVFTIENVLSEDVADYYCLQSDNLPYTFGGGTKLEIK
